Experimental findings from PMC5593527 are described below.

Amino acid sequences for entries named in this document (tags omitted). A change or cut given only in a name is not applied to a line headed by its entry.
UniProt Q9NRG4: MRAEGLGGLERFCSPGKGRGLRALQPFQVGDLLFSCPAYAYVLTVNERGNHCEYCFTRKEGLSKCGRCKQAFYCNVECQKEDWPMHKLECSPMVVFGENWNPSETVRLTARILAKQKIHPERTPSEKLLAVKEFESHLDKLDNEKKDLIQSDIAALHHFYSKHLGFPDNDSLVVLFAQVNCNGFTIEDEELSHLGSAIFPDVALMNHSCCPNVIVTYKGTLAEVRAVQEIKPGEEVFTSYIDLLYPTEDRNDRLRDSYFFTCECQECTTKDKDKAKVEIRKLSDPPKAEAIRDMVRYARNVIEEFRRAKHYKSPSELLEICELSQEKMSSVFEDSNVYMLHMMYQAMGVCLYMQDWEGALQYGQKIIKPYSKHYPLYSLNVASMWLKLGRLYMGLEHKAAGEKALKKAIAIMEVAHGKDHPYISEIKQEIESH
UniProt P35222: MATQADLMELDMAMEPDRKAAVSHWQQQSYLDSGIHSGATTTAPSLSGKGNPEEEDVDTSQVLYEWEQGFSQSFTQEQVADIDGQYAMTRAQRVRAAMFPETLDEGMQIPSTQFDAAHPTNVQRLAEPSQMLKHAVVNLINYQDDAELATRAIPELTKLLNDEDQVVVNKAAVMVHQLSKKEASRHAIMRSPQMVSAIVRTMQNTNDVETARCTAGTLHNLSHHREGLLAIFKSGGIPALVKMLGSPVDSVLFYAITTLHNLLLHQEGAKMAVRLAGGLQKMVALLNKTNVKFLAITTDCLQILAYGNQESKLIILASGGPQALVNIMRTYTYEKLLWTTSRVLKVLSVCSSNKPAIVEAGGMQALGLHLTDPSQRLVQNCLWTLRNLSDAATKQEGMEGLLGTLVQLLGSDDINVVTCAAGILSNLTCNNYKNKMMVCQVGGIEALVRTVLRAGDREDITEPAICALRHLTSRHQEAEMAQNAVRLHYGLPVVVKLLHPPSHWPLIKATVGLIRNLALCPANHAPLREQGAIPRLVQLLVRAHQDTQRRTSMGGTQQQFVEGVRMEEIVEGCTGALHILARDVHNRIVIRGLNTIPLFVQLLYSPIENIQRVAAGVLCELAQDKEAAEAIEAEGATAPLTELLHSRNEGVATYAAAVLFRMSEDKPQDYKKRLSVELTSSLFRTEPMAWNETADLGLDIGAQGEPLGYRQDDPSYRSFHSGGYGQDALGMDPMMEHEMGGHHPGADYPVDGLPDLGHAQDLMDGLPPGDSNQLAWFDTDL

No constants are given. Whether binding was seen depends on the method and setting. Binding seen in cells or lysates may run through a third protein. Some results given as binding are weak or reduced against the parent protein; the word gives no strength.

Experiment [1] concerns the target SMYD2 (endogenous) (human (endogenous in HCT116 and SNU475)) (UniProt Q9NRG4). Description: co-IP; cell extracts of HCT116 and SNU475; immunoprecipitation with anti-SMYD2 antibody or IgG, blot with anti-β-catenin; reciprocal immunoprecipitation with anti-β-catenin or control IgG, blot with anti-SMYD2.
Experiment [2] deals with FLAG-K133A-substituted β-catenin (human) (UniProt P35222). In words: co-IP; 293T cells co-transfected with FLAG-WT- or FLAG-K133A-β-catenin and HA-SMYD2, 48 h; 300 μg cell extract with anti-FLAG M2 affinity gel; beads washed 3 times in TBS pH 7.6; blots with anti-FOXM1, anti-BCL9, anti-α-catenin, anti-HA.

Turning to “β-catenin (endogenous, SNU475) (from UniProt P35222 1-781)”, the binding result in experiment [1] is on record as “binds”. For the substance “HA-SMYD2 (from UniProt Q9NRG4 1-433) (enzyme)”, in experiment [2], the binding entry is recorded as “binds”.
